Results taken from article PMC11142380.
These are yes or no findings as the source states them, for the method shown. In cells and extracts the contact can be indirect. Tags and fused reporters may be left off the sequences shown.

Target: T1, FAD8–YFP–HA (fatty acid desaturase 8 fused to the YFP and HA tags) (Arabidopsis thaliana) (UniProt P48622)
T1 sequence: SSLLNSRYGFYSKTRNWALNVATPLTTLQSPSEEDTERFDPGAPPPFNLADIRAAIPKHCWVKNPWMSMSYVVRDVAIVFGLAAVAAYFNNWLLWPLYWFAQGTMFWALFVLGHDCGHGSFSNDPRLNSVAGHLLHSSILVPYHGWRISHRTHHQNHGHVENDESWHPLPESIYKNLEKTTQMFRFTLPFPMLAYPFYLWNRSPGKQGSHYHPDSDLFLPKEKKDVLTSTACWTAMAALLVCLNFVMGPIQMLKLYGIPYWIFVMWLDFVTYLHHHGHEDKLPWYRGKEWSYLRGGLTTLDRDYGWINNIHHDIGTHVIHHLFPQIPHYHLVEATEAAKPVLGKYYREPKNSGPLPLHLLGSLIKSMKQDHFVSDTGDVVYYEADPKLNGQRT
Test: co-IP; membrane fractions (~840 µg) of leaves fixed with 1% formaldehyde, solubilised in 1% digitonin and 1% n-dodecyl-β-D-maltoside; anti-HA magnetic beads, 4 °C, 1.5 h; eluate immunoblotted with anti-HA, anti-2-Cys Prxs and anti-CHL27; WT plants as control

binding: no binding
B1: COPPER RESPONSE DEFECT 1 (CHL27) (protein, UniProt Q9M591 37-409)
chain: MSASSSPPPPTTATSKSKKGTKKEIQESLLTPRFYTTDFEEMEQLFNTEINKNLNEAEFEALLQEFKTDYNQTHFVRNKEFKEAADKLQGPLRQIFVEFLERSCTAEFSGFLLYKELGRRLKKTNPVVAEIFSLMSRDEARHAGFLNKGLSDFNLALDLGFLTKARKYTFFKPKFIFYATYLSEKIGYWRYITIYRHLKENPEFQCYPIFKYFENWCQDENRHGDFFSALMKAQPQFLNDWQAKLWSRFFCLSVYVTMYLNDCQRTNFYEGIGLNTKEFDMHVIIETNRTTARIFPAVLDVENPEFKRKLDRMVVSYEKLLAIGETDDASFIKTLKRIPLVTSLASEILAAYLMPPVESGSVDFAEFEPNLVY
